In the supplement of paper PMC8616043:
Structures can show the parent of a compound that is named as a salt. The list shows a part of the results. Repeats in this data set agree poorly, so a single value says little.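 The cells are human U-2 OS cells that stably carry a GFP sensor with a nuclear import signal and a classical export signal. They were transfected to make PR50, a 50-repeat proline–arginine dipeptide protein from the ALS/FTD gene C9ORF72. Each well's nuclear-minus-cytoplasm GFP signal was scaled from in-plate DMSO (low) to PR-only wells (high), then scored against the other test wells on the plate; compounds scoring well below zero were called hits that reverse the PR effect.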

Test system: U-2 OS NCT-C biosensor cells expressing PR50
Assay: Z-score of normalised NCT-C biosensor translocation index in PR50-expressing cells; higher = more nuclear biosensor (more disrupted nuclear export)
Conditions: 3 µM; 24 h

| Compound | Z-score |
| --- | --- |
| COc1ccc(C(=O)O[C@H]2CC[C@@]3(C)[C@@H]4CC[C@H]5[C@]6(O)C[C@H](O)[C@@]7(O)[C@@H](CN8C[C@@H](C)CC[C@H]8[C@@]7(C)O)[C@]6(O)C[C@@]53O[C@]24O)cc1OC [Veratridine] | inactive: 0.618 |
| CC[C@H]1CN2CCc3cc(OC)c(OC)cc3[C@@H]2C[C@@H]1C[C@H]1NCCc2cc(OC)c(OC)cc21 [Emetine dihydrochloride hydrate] | inactive: 1.12 |
| CC[C@H]1CN2CCc3cc(OC)c(OC)cc3[C@@H]2C[C@@H]1C[C@H]1NCCc2cc(OC)c(OC)cc21 [Emetine·2HCl] | inactive: -0.673 |
| CN(C)NC(=O)CCC(=O)O [Daminozide] | inactive: -1.87 |
| NCCc1c[nH]c2ccc(O)cc12 [Serotonin hydrochloride] | inactive: 0.00617 |
| CCN(C(C)=O)c1cccc(-c2ccnc3c(C#N)cnn23)c1 [Zaleplon] | inactive: -0.769 |
| COc1ccc2c(c1)[nH]c1c(C)nccc12 [Harmine] | inactive: -0.699 |
| CC1(C)C(C=C(Cl)Cl)C1C(=O)OCc1cccc(Oc2ccccc2)c1 (stereo unspecified) [Permethrin] | inactive: -0.214 |
| Ic1ccccc1CNC1C2CCN(CC2)C1C(c1ccccc1)c1ccccc1 [L-703,606 oxalate salt hydrate] | inactive: 0.502 |
| CCCN(CCC)CCc1ccc(O)c(O)c1 [Dipropyldopamine hydrobromide] | inactive: -0.0344 |
| C[C@@]12N[C@@H](Cc3ccccc31)c1ccccc12 [(-)-MK-801  hydrogen maleate] | inactive: -0.124 |
| CCCN(CCC)[C@@H]1CCc2cccc(O)c2C1 [R-(+)-8-Hydroxy- DPAT  hydrobromide] | inactive: 0.237 |
| C=C(C)[C@@H]1[C@H]2OC(=O)[C@@H]1[C@]1(O)C[C@H]3OC34C(=O)O[C@H]2[C@@]41C.CC(C)(O)[C@@H]1[C@H]2OC(=O)[C@@H]1[C@]1(O)C[C@H]3OC34C(=O)O[C@H]2[C@@]41C (stereo partly specified) [Picrotoxin] | inactive: -0.234 |
| C[C@H]1C(=O)O[C@@H]2CCN3CC=C(COC(=O)[C@](C)(O)[C@]1(C)O)[C@H]23 [Monocrotaline] | inactive: -0.842 |
| C[C@@]1(CO)[C@H](O)CC[C@@]2(C)[C@H]1CC[C@H]1C[C@@H]3C[C@@]12CC[C@]3(O)CO [Aphidicolin] | inactive: -0.0136 |
| Cc1cccc([C@H](C)c2c[nH]cn2)c1C [Dexmedetomidine·HCl] | inactive: -0.558 |
| CC(C)(C)NCC(O)c1ccccc1Cl (stereo unspecified) [Tulobuterol hydrochloride] | inactive: -0.549 |
| CC1(C(=O)O)C2CCC(O2)C1(C)C(=O)O (stereo unspecified) [Cantharidic Acid] | inactive: -0.204 |
| CCN1C[C@]2(COC)CC[C@H](O)[C@@]34C5C[C@@H]6[C@@H](OC)C[C@](O)(C(CC23)C14)C5[C@H]6OC(C)=O (stereo partly specified) [Condelphine] | inactive: -0.0514 |
| CN(c1nc2ccccc2s1)C1CCN(C[C@H](O)COc2ccc(F)c(F)c2)CC1 [Lubeluzole dihydrochloride] | inactive: -1.04 |
| NC(=O)CN1CCCC1=O [Piracetam] | inactive: 0.617 |

Rewritten field by field: entries from further up
CCCN(CCC)CCc1ccc(O)c(O)c1 [Dipropyldopamine hydrobromide]
  Z-score: inactive: -0.0344
C[C@@]12N[C@@H](Cc3ccccc31)c1ccccc12 [(-)-MK-801  hydrogen maleate]
  Z-score: inactive: -0.124

Remaining list, next part

| Compound | Z-score |
| --- | --- |
| N#CCCN [3-Aminopropionitrile fumarate salt] | inactive: 0.259 |
| CN1CC[C@@]2(C)c3cc(OC(=O)Nc4ccccc4)ccc3N(C)[C@@H]12 [Phenserine] | inactive: 0.33 |
| C=C(C)[C@@H]1[C@H]2OC(=O)[C@@H]1[C@]1(O)C[C@H]3O[C@]34C(=O)O[C@H]2[C@]14C [Picrotoxinin] | inactive: -0.875 |
| C=CCN1C[C@H](C(=O)N(CCCN(C)C)C(=O)NCC)C[C@@H]2c3cccc4[nH]cc(c34)C[C@H]21 [Cabergoline] | inactive: 0.213 |
| COc1c2c3c4c(c(OC)c(=O)c5c(O)cc(OC)c(c6c(OC)cc(O)c(c1=O)c63)c54)[C@@H](C(C)=O)[C@@](C)(O)C2 [Hypocrellin A] | inactive: -0.686 |
| O=P1(NCCCl)OCCCN1CCCl (stereo unspecified) [Ifosfamide] | inactive: 0.668 |
| CO[C@H](C)[C@](O)(C(=O)OCC1=CCN2CC[C@H](O)[C@@H]12)C(C)C [Heliotrine] | inactive: -0.268 |
| Cc1c2ccncc2c(C)c2c1[nH]c1ccccc12 [Ellipticine] | inactive: -0.418 |
| CC(C)NP(=O)(NC(C)C)OP(=O)(NC(C)C)NC(C)C [Tetraisopropyl pyrophosphoramide] | inactive: -0.796 |
| C=C[C@]12CN(C)[C@@H]3[C@H]4CO[C@H](C[C@H]41)[C@]1(C(=O)Nc4ccccc41)[C@@H]32 [Gelsemine·HCl] | inactive: 1.48 |
| CSC(=S)NCc1c[nH]c2ccccc12 [Brassinin] | inactive: 0.969 |
| CC(=O)NBr [N-Bromoacetamide] | inactive: 3.15 |
| CC[C@@H](C(=O)O)[C@@H]1O[C@@H]([C@@H](C)[C@H](O)[C@H](C)C(=O)[C@H](CC)[C@H]2O[C@]3(C=C[C@@H](O)[C@]4(CC[C@@](C)([C@H]5CC[C@](O)(CC)[C@H](C)O5)O4)O3)[C@H](C)C[C@@H]2C)[C@@H](C)C[C@@H]1C [Narasin] | inactive: -0.177 |
| CC[C@@H]1/C=C/C=C/C[C@H](C)[C@H](O)[C@](C)(O)C(=O)[C@H](C)[C@@H](O)[C@H](C)C(=O)[C@H](C)[C@@H](O)[C@H](C)/C=C/C(=O)O[C@H]2[C@@H](C)[C@@H](CC1)O[C@@]1(CC[C@@H](C)[C@@H](C[C@H](C)O)O1)[C@@H]2C [Oligomycin A] | inactive: 0.407 |
| CC(C)(C)[C@]1(O)CC2OC(=O)CC23C(=O)OC2OC(=O)[C@H](O)C231 (stereo partly specified) [Bilobalide] | inactive: -0.829 |
| C=C1[C@@H](C)[C@H]2[C@H](Cc3ccccc3)NC(=O)[C@]23OC(=O)/C=C/[C@H](O)CCC[C@@H](C)C/C=C/[C@H]3[C@@H]1O [Cytochalasin B] | inactive: -0.474 |
| NCCc1c[nH]c2ccccc12 [Tryptamine hydrochloride] | inactive: 0.0491 |
| Clc1ccc(N2C[C@H]3CC[C@@H](C2)N3)nn1 | inactive: -0.365 |
| COc1cc2c(cc1OC)C1CC(=O)C(CC(C)C)CN1CC2 (stereo unspecified) [Tetrabenazine] | inactive: -0.675 |
| O=C1CCC[C@@H]2[C@H]3CCCN4CCC[C@@H](CN12)[C@@H]34 [Matrine] | inactive: -0.602 |
| Cc1cccc(C)c1NC1=NCCCS1 [Xylazine hydrochloride] | inactive: -0.522 |

| Compound | Z-score |
| --- | --- |
| CCCN1CCC[C@@H](c2cccc(O)c2)C1 [S(-)-3PPP  hydrochloride] | inactive: -0.199 |
| Cc1cc2c(C(C)C)c(O)c(O)c(C=O)c2c(O)c1-c1c(C)cc2c(C(C)C)c(O)c(O)c(C=O)c2c1O [Gossypol] | inactive: -1.41 |
| O=c1[nH]c2ccccc2n1C1CCN(CCCC(c2ccc(F)cc2)c2ccc(F)cc2)CC1 [Pimozide] | inactive: -0.0224 |
| COc1cccc2c1cc([N+](=O)[O-])c1c(C(=O)O)cc3c(c12)OCO3 [Aristolochic acid A] | inactive: -0.488 |
| CC1=C2C[C@H]3[C@@H](CC=C4C[C@@H](O)CC[C@@]43C)[C@@H]2CC[C@]12O[C@@H]1C[C@H](C)CN[C@H]1[C@H]2C [Cyclopamine] | inactive: -0.765 |
| c1cc2c(cc1[C@H]1OC[C@H]3[C@@H]1CO[C@H]3c1ccc3c(c1)OCO3)OCO2 [(-)-Asarinin] | inactive: 0.075 |
| CN(C)C(=O)Oc1ccc[n+](C)c1 [Pyridostigmine bromide] | inactive: 0.824 |
| CN(C)C(=O)Oc1ccc[n+](C)c1 [Pyridostigmine Bromide] | inactive: -0.25 |
| C#CCN(C)[C@H](C)Cc1ccccc1 [Selegiline·HCl] | inactive: -0.564 |
| CN1[C@@H]2C[C@@H](OC(=O)[C@H](CO)c3ccccc3)C[C@H]1[C@H](O)C2 (racemic) [(+/-)-Anisodamine] | inactive: -0.551 |
| Clc1ccc(N2CCN(Cc3c[nH]c4ncccc34)CC2)cc1 [L-745,870  hydrochloride] | inactive: -0.126 |
| NCCCNCCSP(=O)(O)O [Amifostine] | inactive: 0.444 |
| c1ccc2c(c1)[nH]c1cnccc12 [Norharmane] | inactive: 0.0952 |
| CC1(C)[C@@H](O)C[C@H]2[C@](C)(O)[C@@H]3CC[C@@H]4[C@@H](O)[C@@]3(C[C@@H](O)[C@@]21O)C[C@@]4(C)O [Grayanotoxin III] | inactive: -0.3 |
| CN1[C@@H]2CC[C@H]1C[C@@H](OC(=O)C(CO)c1ccccc1)C2 (stereo partly specified) [Atropine Sulfate Monohydrate] | inactive: 2.18 |
| CN1[C@@H]2CC[C@H]1C[C@@H](OC(=O)C(CO)c1ccccc1)C2 (stereo partly specified) [Atropine sulfate] | inactive: 0.0353 |
| CC(C)C[C@H]1C(=O)N2CCC[C@H]2[C@]2(O)O[C@](NC(=O)[C@@H]3C=C4c5cccc6[nH]c(Br)c(c56)C[C@H]4N(C)C3)(C(C)C)C(=O)N12 [(+)-Bromocriptine methanesulfonate] | inactive: 1.89 |
| CC(C)C[C@H]1C(=O)N2CCC[C@H]2[C@]2(O)O[C@](NC(=O)[C@@H]3C=C4c5cccc6[nH]c(Br)c(c56)C[C@H]4N(C)C3)(C(C)C)C(=O)N12 [Bromocriptine Mesylate] | inactive: -1.64 |
| CC(C)C[C@H]1C(=O)N2CCC[C@H]2[C@]2(O)O[C@](NC(=O)[C@@H]3C=C4c5cccc6[nH]c(Br)c(c56)C[C@H]4N(C)C3)(C(C)C)C(=O)N12 [Bromocriptine mesylate] | inactive: -0.281 |
